Two substances from PMC2572843 can be followed below.

Protein sequences, listed by entry. Tags and fused reporters are not part of them. Lines headed by an entry give the natural chain unless they say otherwise; changes in a name come on top. Chains listed by the source or under a name are the forms on record and can include a tag or linker. Residues count along the entry.
UniProt P02769, residues 25-607: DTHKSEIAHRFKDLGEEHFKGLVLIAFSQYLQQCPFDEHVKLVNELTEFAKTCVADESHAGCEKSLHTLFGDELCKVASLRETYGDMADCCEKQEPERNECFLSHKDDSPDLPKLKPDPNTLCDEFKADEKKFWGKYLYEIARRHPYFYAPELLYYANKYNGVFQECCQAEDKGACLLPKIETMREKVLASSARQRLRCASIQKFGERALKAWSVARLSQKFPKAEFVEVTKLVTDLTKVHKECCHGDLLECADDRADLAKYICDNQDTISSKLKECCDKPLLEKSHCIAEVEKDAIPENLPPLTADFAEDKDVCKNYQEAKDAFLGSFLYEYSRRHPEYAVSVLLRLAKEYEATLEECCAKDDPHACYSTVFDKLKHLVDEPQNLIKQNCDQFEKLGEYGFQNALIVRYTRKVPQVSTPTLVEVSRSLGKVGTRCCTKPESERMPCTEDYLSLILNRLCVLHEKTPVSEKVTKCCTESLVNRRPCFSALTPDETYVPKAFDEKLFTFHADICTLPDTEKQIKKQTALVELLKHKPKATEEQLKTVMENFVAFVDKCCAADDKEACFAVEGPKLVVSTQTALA
UniProt Q03048: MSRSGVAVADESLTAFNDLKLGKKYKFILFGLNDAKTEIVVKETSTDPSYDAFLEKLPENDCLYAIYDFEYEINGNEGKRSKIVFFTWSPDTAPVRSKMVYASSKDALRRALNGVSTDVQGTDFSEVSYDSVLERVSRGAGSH
yeast cofilin mutant Cof1-22 (Q03048, form named): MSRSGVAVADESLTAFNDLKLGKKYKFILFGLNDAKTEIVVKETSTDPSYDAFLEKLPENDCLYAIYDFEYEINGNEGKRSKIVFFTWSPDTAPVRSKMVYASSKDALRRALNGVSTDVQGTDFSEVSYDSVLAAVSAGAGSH

These are yes or no findings as the source states them, for the method shown.

Test [1] addresses bovine serum albumin (bovine) (UniProt P02769). The test is described as follows: pull-down; beads coated with Tpm1 or BSA incubated with 50 nM Cof1, Cof1-5 or Cof1-22; bound cofilin shown by immunoblot with yeast cofilin antibody; both purified.
For test [2], the target named is yeast tropomyosin Tpm1 (recombinant) (S. cerevisiae) (UniProt P17536). The test is described as above.

On to “yeast cofilin Cof1 (recombinant, wild type) (from UniProt Q03048 1-143)”, for which the binding result in test [1] is “no binding (tested: 50 nM)”. “yeast cofilin mutant Cof1-22 (from UniProt Q03048 1-143)”: the binding entry in test [2] is given as “no binding (tested: 50 nM)”.
